The results in this text go back to PMC11165029.

Results are given in words; binding and its absence hold for the method and conditions named. Binding seen in cells or lysates may run through a third protein. Some results given as binding are weak or reduced against the parent protein; the word gives no strength. For part of these data: Sequences can lack the tags named with a protein.

In assay [1] the target is TNF receptor-associated factor 4 (TRAF4), overexpressed tagged form (UniProt Q9BUZ4). As to the kind of experiment: co-IP; lysates of HEK293T transfectants with combinations of plasmids; immunoprecipitation with anti-HA tag antibody-conjugated agarose beads, anti-DYKDDDDK tag beads as negative control; blots with anti-HA, anti-Myc or anti-albumin antibody.
Assay [2] deals with integrin-β1, endogenous (intrinsic) in MDA-MB-231 cells (human (endogenous in MDA-MB-231)) (UniProt P05556). As to the kind of experiment: co-IP; extracts of MDA-MB-231/LOXL4 wt-overexpressing cells; endogenous integrin-β1 captured with biotinylated anti-integrin-β1 antibody and streptavidin-agarose; bio-control IgG as negative control; blots of the precipitates.
Assay [3] has the same target. As to the kind of experiment: co-IP; extract of MDA-MB-231 parental cells; endogenous integrin-β1 captured with biotinylated anti-integrin-β1 antibody and streptavidin-agarose; bio-control IgG as negative control; blots of the precipitates.

B1: TGF-β activated kinase 1 (TAK1), overexpressed tagged form (enzyme, UniProt O43318 1-606)
chain: MSTASAASSSSSSSAGEMIEAPSQVLNFEEIDYKEIEVEEVVGRGAFGVVCKAKWRAKDVAIKQIESESERKAFIVELRQLSRVNHPNIVKLYGACLNPVCLVMEYAEGGSLYNVLHGAEPLPYYTAAHAMSWCLQCSQGVAYLHSMQPKALIHRDLKPPNLLLVAGGTVLKICDFGTACDIQTHMTNNKGSAAWMAPEVFEGSNYSEKCDVFSWGIILWEVITRRKPFDEIGGPAFRIMWAVHNGTRPPLIKNLPKPIESLMTRCWSKDPSQRPSMEEIVKIMTHLMRYFPGADEPLQYPCQYSDEGQSNSATSTGSFMDIASTNTSNKSDTNMEQVPATNDTIKRLESKLLKNQAKQQSESGRLSLGASRGSSVESLPPTSEGKRMSADMSEIEARIAATTAYSKPKRGHRKTASFGNILDVPEIVISGNGQPRRRSIQDLTVTGTEPGQVSSRSSSPSVRMITTSGPTSEKPTRSHPWTPDDSTDTNGSDNSIPMAYLTLDHQLQPLAPCPNSKESMAVFEQHCKMAQEYMKVQTEIALLLQRKQELVAELDQDEKDQQNTSRLVQEHKKLLDENKSLSTYYQQCKKQLEVIRSQQQKRQGTS
B1: the binding entry in assay [1] is reported as “binds”.

B2: TGF-β activated kinase 1 (TAK1), endogenous in MDA-MB-231 cells (enzyme, UniProt O43318 1-606)
chain: B1 chain
B2: the binding result in assay [2] is recorded as “binds”; in assay [3], “binds weakly”.
